# The campaign covered roughly 52,000 sequences. About 210 (0.4%) were called active.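 Rule for the calls: active = gene whose silencing raises cell survival under the drug, median off-target-corrected z-score across its silencing RNAs 2 or more; inactive = the rest.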 The list shows a part of the results.
# Test: Resistance to Poly (ADP-Ribose) Polymerase inhibitor: Gene Identification via Genome-wide siRNA Screen
# Conditions: mouse BRCA2 R2336H ES cells, olaparib, CellTiter-Glo viability; stronger effect = higher value
# How it was run: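 Mouse BRCA2 R2336H ES cells were reverse-transfected with siRNA (20 nM final), treated at 48 h with 500 nM olaparib, and read by CellTiter-Glo after 72 h. Scores: MAD-based z per siRNA, median per gene, seed off-target correction.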
row,Sequence,z-score
1,GGAACAGAAACUAUUUAGATT against Zfp189,inactive: 0.235
2,CCUCUUCUUGUUUCAAGGGTT against 9430028L06Rik,inactive: 0.164
3,GCUACAUUUCACGACUGCGTT against Dpm3,inactive: -0.596
4,GGAUAAAAGUCGAAAAACATT against Mcpt1,inactive: -0.387
5,GGAGUGAAGGCCAGCUGAATT against Son,inactive: -3.66
6,GCUGCGUGUGAUUGAACCCTT against Coro2b,inactive: -0.143
7,GGAUGGUGACAUCAUUCCGTT against 1300017K07Rik,inactive: -0.749
8,CCACCAGAAUCCUAACACATT against Nucb2,inactive: 0.805
9,GCCUUUACCAGAAUUAUAGTT against Itgb3,inactive: -0.353
10,CCACAUCUGAGACUAUUCATT against Crhr1,inactive: -1.05
11,GGAUAUGUUUGGUUAUUUCTT against Acbd4,inactive: 0.676
12,GGACAUUGACGCAUAGGGATT against Arsa,inactive: 0.316
13,GGCUGUGGAUAAAGCUAAUTT against AI838661,inactive: 2.07
14,GGAUGUGCAAGGAAUCUCATT against Spint1,inactive: -1.4
15,GCAUUGUGCUGAUGUGCGGTT against BC002199,inactive: 0.612
16,GCAAUUCCAAGAAAGUGUGTT against Skb1,inactive: -2.14
17,AAUGCUCAGAAAGAAUAACTT against Sprr2e,inactive: -0.23
18,GGUUAAGUCCCUAGGACAUTT against Blzf1,inactive: -0.821
19,GGAAGAAGCUGAGGAAAGCTT against 4921536I21Rik,inactive: -1.67
20,GCUUAUGGGUGGCUUUAAGTT against 2310008H09Rik,inactive: 0.292
21,GAAUGUUCACUGUUGGAUUTT against Olfr622,inactive: -0.544
22,AGGCAUUAUACCCAUCAGGTT against Mtvr2,inactive: 0.825
23,GCCAAAAUCAUGGUGGAGATT against Mrgpra1,inactive: -0.159
24,GGAGAGUUCUGUUUAGUUATT against Cul5,inactive: 0.625
25,GGAAAUGAAGGAACAUUACTT against Csmd1,inactive: 1.57
26,GGGAGGAUGUGACCUUUGATT against Tbc1d13,inactive: -2.69

# Rewritten as tab-separated lines: part of the list above
row	Sequence	z-score
17	AAUGCUCAGAAAGAAUAACTT against Sprr2e	inactive: -0.23
18	GGUUAAGUCCCUAGGACAUTT against Blzf1	inactive: -0.821

# Going on with the list.

row,Sequence,z-score
1,GCAAAUAUAAAACUAGAGCTT against Zfp62,inactive: 0.399
2,GGCAAAUGGGUUUUCUGCATT against Jam2,inactive: -0.881
3,GGAAAGUGCCAUGAAGACCTT against Dbi,inactive: -0.00985
4,GGUACGCCCUCAUAUGUCATT against Lnp,inactive: -1.1
5,GGUAAUGGGACUUGGUAGGTT against Olfr1338,inactive: -0.676
6,CGUAGAAAUCCCUCAUUUCTT against Olfr857,inactive: 0.227
7,GGAAAUAUCCAAGAAUCCCTT against Bbs4,inactive: 0.274
8,GGCUGUAUUCAUGACAACCTT against Caskin1,inactive: 1.43
9,GGACAUCACGAGCAUUUCATT against Faim2,inactive: -1.79
10,CGAACAAGCCAUGUUUACATT against 9130002C22Rik,inactive: 1.94
11,GGUUAAAUGUCGUUUAUACTT against Rasa3,inactive: 1.21
12,GCGUGGAUUACAUUUCUCUTT against Depdc1a,inactive: 0.337
13,GGAGAAACAAAACUUCUGGTT against Arcp,inactive: 1.46
14,GGUCCAGUUGGAGAUGACATT against Ube2d3,inactive: -2.84
15,GCCUCCUGUCAAAGGUUCATT against Clm6,inactive: 0.143
16,GGAGGGUGAAGAGAAUGGUTT against 1300003K24Rik,inactive: -0.791
17,CCUAAGCCCUCUAAGGCAATT against Pik3r2,inactive: 3.1
18,GGGAUUCAGACAUGUGCUGTT against 4930503E14Rik,inactive: 1.63
19,CCAGACACAUAGGACAAAATT against Slco3a1,inactive: -0.0388
20,CCAGAUGUGAAACAUGACATT against Upk3a,inactive: 0.877
21,CGAGCGAUUCCCAUACAAUTT against BC034834,inactive: 0.438
22,GCACAUUUUACCCAAGGCCTT against Gpr23,inactive: 0.588
23,GGCCAGAACUGUUCCAAUUTT against Cilp,inactive: 0.954
24,GGAUCUCUUAGGUAUCUUATT against 4921520L01Rik,inactive: -0.486
25,GCGACUGUUCGGUGGUACATT against MNCb-4137,inactive: 1.45
26,CCCACUCUUUGUGUACUGATT against Olfr262,inactive: 0.561

row,Sequence,z-score
1,CCUAGCUACAGAACUGUGCTT against Snapap,inactive: 0.369
2,GGGAAAGGAAAGAAGAAGATT against Srp19,inactive: -1.1
3,GGAUUACAACAACUAUGGCTT against Pla2g1b,inactive: -0.124
4,GGGAAAAAGAUGCAAGUAUTT against Catnbip1,inactive: -0.191
5,GGGUUUAUUACAAUCAAACTT against Liph,inactive: -0.757
6,GGGCUGAUCUGGAUCAAUATT against Irf1,inactive: -0.392
7,CGAUCCAAUCAAAACUAGUTT against Ddx41,inactive: -0.578
8,GAAAAAUCAUGAAGCCAUATT against Olfr203,inactive: 0.192
9,GCGGCUAACUGAAUACAUGTT against G430090F17Rik,inactive: -1.49
10,GGAUGACCUUUCAUUCAAATT against 5830418K08Rik,inactive: 1.75
11,GGAGGUUAAAUUUUUCAGATT against MGC36320,inactive: 0.912
12,GGCUUUAUAUGAAACUCCUTT against Acrv1,inactive: -0.274
13,GGACUGAACCCAAAUGCCUTT against 5830457O10Rik,inactive: -0.00905
14,GGAACAGAUAACAUUAUGGTT against Cpeb3,inactive: 0.00638
15,CGCAAGAGAGUGGAUUUCUTT against Cpb1,inactive: 0.938
16,CCAACGGCAUAAAUCCUGATT against 1810044A24Rik,inactive: -1.19
17,GCGUACGUGAUCUCAGUCUTT against Ttll1,inactive: -1.33
18,GGUGCUCAAUAAAUGUAAATT against Cd151,inactive: -0.471
19,GCCGUACAGUAAGCACUACTT against Smyd2,inactive: 0.135
20,GGGCUUUGCUGUCUAUGCATT against Dmwd,inactive: 0.54
21,GCCACAUUCUUCUCAACCUTT against Tas2r106,inactive: -0.641
22,GGAAACUGGACCAGACUAUTT against Smarcd1,inactive: -1.5
23,GGGUUGCCACAUGUUAUAUTT against Smad2,inactive: -0.868
24,GGAAAAGUGUACGUGAUCATT against Prkce,inactive: 1.08
25,GCAUGAUCCUUCAUAACAUTT against 4930511I11Rik,inactive: 0.746
26,CCUGUCGACGGAAUUUUAGTT against Zfp287,inactive: 1.15

row,Sequence,z-score
1,GGAUGAAGACAUGCUCACATT against Pcdhb6,inactive: -1.53
2,GGGAAUGAAAUGUUCUUCGTT against Ttl,inactive: 0.518
3,GCUGUGUGGACAAAGUCUGTT against 1810046I24Rik,inactive: -0.949
4,GGCUCUCAAGAAGAGCAAGTT against BC018462,inactive: 1.47
5,GGACAAGAUGCGAAAAGCATT against Tbrg4,inactive: -1.42
6,GCCCACCAUUCAGAUAGAGTT against Tacstd2,inactive: 1.21
7,CCUUUGACUUCACUAUUGATT against Map4k2,inactive: -0.0815
8,GCUAUGUGUUGAUUUAAAGTT against Pdk1,inactive: 0.531
9,GCUCGUCUAUGCUAUUUCUTT against Fath,active: 0.81
10,CAAAUCAAGAGCCUCUAUGTT against Acsl5,inactive: 0.447
11,GGAUGUUCCAUAUGUGCUGTT against Cdgap,inactive: 0.145
12,CCUUAUAGCAUAAGCUUUATT against Olfr768,inactive: -0.137
13,GCAUAUGCGAACAGUAAAATT against Rab28,inactive: -0.344
14,GCCAUUUCCUUCAGUAGUATT against Olfr1355,inactive: -1.07
15,GGAGUUUGAACGUGAGCGGTT against Ndufb7,inactive: -0.412
16,UUUACCUUGUCACCGUCUUTT against Olfr1029,inactive: 0.526
17,GGUACUAACACCACAAAAATT against 4921537D05Rik,inactive: -0.305
18,CGCGGUAUUCUCCUUGAAGTT against Ccr4,inactive: -0.196
19,GGCUAUUGACUUCAUAGACTT against Dusp1,inactive: -0.36
20,GUCAUUUUGCUAGUGGUGATT against Olfr142,inactive: -0.0843
21,GCAGUUGCGUUCUAUUGAATT against D19Ertd678e,inactive: -2.43
22,GGUGGAGAGGGACAACUUUTT against Gfap,inactive: 0.528
23,GGAGUCCAAAGAGAAGUUCTT against Pwwp1,inactive: 0.692
24,GCAUGGAGAGACAGUUAACTT against Ccdc2,inactive: -1.11
25,CCUAUAAAUGUCCUUAGUCTT against 2310061I09Rik,inactive: -1.32
26,GAUGCUGUAGUCUUGUGAGTT against Sprrl2,inactive: 0.0435

# Four records drawn at random from the list so far, as already listed:
row,Sequence,z-score
2,GGGAAUGAAAUGUUCUUCGTT against Ttl,inactive: 0.518
24,GCAUGGAGAGACAGUUAACTT against Ccdc2,inactive: -1.11
13,GCAUAUGCGAACAGUAAAATT against Rab28,inactive: -0.344
3,GCUGUGUGGACAAAGUCUGTT against 1810046I24Rik,inactive: -0.949
